In publication PMC10201424:
No constants are given. Whether binding was seen depends on the method and setting. For some of these results: Binding seen in cells or lysates may run through a third protein. Some binding calls cover weakened binding; strength is not graded here. Tags and fused reporters may be left off the sequences shown. Each block holds one substance with its values, some of them ahead of it.

The chains behind the UniProt entries cited, without tags or fusion partners. Where a name states a change or a piece, a line headed by the entry shows the natural chain unless it says otherwise.
UniProt P38920: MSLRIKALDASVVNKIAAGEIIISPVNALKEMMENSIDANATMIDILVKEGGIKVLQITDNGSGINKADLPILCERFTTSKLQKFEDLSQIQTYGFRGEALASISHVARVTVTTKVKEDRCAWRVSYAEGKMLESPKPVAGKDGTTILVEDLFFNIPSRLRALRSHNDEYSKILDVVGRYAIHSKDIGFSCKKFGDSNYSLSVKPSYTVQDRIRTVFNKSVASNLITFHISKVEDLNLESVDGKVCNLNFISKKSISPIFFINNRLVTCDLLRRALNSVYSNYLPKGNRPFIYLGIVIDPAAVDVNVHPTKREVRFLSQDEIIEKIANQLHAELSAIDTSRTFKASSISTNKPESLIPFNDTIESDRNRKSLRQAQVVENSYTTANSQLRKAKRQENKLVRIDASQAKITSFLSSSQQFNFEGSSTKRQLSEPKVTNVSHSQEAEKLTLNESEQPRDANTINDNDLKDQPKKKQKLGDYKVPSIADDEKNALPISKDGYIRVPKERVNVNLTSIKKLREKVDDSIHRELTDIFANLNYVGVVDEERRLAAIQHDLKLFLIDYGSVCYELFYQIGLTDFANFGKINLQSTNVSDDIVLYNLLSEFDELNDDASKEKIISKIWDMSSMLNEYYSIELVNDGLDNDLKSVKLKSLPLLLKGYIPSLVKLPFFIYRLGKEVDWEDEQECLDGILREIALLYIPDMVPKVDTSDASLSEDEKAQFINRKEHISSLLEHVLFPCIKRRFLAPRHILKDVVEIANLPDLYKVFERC
UniProt P51979: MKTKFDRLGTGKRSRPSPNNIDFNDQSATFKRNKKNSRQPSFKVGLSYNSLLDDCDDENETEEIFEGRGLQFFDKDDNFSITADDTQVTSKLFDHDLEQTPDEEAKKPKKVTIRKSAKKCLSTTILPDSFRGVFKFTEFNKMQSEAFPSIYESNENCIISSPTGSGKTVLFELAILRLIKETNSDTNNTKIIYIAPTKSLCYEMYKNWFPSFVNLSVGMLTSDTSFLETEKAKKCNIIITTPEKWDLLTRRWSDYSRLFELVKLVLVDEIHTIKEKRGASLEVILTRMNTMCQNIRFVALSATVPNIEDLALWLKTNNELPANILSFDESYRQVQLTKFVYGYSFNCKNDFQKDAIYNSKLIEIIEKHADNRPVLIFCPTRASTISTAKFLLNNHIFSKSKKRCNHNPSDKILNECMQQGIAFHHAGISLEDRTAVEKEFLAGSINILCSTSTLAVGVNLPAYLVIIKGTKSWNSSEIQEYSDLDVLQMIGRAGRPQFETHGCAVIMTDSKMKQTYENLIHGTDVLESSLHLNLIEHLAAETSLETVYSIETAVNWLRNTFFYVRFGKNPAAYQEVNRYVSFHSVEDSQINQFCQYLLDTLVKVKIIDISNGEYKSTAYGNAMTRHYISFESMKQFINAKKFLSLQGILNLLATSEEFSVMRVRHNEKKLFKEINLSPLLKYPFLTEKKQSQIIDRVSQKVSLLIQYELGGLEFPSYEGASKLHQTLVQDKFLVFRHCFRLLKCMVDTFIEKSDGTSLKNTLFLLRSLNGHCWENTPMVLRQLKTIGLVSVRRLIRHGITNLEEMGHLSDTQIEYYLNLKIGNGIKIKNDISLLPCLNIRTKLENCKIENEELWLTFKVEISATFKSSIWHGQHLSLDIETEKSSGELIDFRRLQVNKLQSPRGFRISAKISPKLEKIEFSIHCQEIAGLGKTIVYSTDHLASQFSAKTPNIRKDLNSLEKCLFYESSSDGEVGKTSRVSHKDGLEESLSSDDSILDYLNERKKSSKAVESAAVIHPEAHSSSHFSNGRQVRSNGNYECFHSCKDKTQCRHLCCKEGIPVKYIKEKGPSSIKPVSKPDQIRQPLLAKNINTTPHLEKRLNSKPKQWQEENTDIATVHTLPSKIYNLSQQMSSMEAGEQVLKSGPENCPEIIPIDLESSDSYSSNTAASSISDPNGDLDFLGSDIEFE

Experiments:
[1] = biological target: T1, Top3/GST-Rmi1 complex (S. cerevisiae) (UniProt P13099+Q02685); assay: pull-down; Top3/GST-Rmi1 (0.8 μM) on magnetic glutathione beads, His-Mlh1/Strep-Mlh2 0.8 μM, without or with Mer3-Strep (0.2 or 0.8 μM); 25 mM HEPES pH 7.5, 5% glycerol, 100 mM NaCl, 1 mM TCEP, 0.1% Tween-20; stained gel; both purified
T1 sequence 1: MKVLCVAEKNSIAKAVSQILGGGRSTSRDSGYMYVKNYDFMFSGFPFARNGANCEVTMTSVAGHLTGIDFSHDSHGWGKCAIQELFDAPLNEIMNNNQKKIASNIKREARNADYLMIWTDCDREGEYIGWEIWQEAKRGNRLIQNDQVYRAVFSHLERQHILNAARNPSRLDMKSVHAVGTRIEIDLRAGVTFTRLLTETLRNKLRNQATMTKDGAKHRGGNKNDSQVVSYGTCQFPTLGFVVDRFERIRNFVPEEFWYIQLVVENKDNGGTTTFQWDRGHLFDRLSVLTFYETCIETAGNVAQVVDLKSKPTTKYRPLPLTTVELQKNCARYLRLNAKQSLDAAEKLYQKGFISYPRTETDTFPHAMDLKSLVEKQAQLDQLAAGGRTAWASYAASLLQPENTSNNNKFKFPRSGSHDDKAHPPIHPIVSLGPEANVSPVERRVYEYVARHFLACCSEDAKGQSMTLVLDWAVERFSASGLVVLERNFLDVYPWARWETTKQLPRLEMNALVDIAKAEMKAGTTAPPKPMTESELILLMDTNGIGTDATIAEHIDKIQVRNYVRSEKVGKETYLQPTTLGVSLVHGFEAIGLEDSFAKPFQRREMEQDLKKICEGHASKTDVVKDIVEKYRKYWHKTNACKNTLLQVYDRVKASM
T1 sequence 2: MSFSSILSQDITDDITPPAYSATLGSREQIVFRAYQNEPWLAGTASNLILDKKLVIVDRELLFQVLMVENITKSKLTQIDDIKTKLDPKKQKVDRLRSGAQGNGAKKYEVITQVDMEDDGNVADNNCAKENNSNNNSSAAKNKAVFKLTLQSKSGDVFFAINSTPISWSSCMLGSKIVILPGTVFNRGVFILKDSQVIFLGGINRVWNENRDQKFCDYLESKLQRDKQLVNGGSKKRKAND

[2] = biological target: T2, Top3 (yeast two-hybrid fusion) (S. cerevisiae) (UniProt P13099); assay: two-hybrid; pGAD-C1 and pGBDU-C1 fusions in reporter strain yWL365; growth on -Leu/-Ura/-His with or without 1 mM 3-aminotriazole, 30°C, 4–6 days
T2 sequence: T1 sequence 1

[3] = biological target: T3, Rmi1 (yeast two-hybrid fusion) (S. cerevisiae) (UniProt Q02685); assay: as above
T3 sequence: T1 sequence 2

[4] = biological target: T4, Top3-3HA (C-terminally HA-tagged Top3 in SK1 yeast) (S. cerevisiae) (UniProt P13099); assay: co-IP; anti-HA immunoprecipitation from SK1 meiotic lysates (6 h in sporulation medium), anti-Myc blot; 50 mM Tris–HCl pH 7.5, 150 mM NaCl, 1% Nonidet P-40, 1 mM EDTA
T4 sequence: T1 sequence 1

- binding [1]: binds weakly
Substance: His-Mlh1/Strep-Mlh2 complex (from UniProt P38920 1-769; Q07980 1-695)

- binding [2]: binds
- binding [3]: binds
Substance: Mer3 (yeast two-hybrid fusion) (from UniProt P51979 1-1187) (enzyme)

- binding [4]: binds
Substance: Mer3-9Myc (C-terminally Myc-tagged Mer3 in SK1 yeast) (from UniProt P51979 1-1187) (enzyme)
